The chains behind the UniProt entries cited, without tags or fusion partners. Residues count along the entry.
UniProt P0DTC8, residues 16-121: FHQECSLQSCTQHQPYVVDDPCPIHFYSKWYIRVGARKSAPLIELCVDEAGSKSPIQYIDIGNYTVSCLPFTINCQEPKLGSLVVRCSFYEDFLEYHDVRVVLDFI
UniProt P14625, residues 22-803: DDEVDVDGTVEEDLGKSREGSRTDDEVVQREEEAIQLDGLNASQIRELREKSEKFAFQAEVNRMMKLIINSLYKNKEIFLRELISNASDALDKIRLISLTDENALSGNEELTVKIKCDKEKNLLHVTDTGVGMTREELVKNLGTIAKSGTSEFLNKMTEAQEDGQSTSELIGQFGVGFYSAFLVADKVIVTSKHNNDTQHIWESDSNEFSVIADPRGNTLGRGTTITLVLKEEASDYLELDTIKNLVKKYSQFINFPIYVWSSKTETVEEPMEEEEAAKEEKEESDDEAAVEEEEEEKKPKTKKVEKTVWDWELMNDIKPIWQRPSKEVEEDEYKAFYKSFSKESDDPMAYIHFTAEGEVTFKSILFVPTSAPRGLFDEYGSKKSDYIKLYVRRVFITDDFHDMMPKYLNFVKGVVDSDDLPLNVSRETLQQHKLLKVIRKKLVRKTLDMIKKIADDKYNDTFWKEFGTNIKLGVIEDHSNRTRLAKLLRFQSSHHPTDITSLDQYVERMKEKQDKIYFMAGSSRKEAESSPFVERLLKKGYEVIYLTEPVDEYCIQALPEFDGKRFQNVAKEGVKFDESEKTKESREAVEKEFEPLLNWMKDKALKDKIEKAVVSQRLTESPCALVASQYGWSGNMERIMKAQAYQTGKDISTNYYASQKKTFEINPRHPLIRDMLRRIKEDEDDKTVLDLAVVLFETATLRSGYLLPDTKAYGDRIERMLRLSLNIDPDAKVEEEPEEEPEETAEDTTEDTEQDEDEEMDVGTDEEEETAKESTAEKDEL

In PMC9168264:

Molecular target: SARS-CoV-2 ORF8L protein fused to EGFP (from pEGFP-ORF8L) (SARS-CoV-2) (UniProt P0DTC8)
Experiment: affinity purification with mass spectrometry

## HSP90B1 (from UniProt P14625 22-803)
  binding: binds

Results are given in words; binding and its absence hold for the method and conditions named. Binding seen in cells or lysates may run through a third protein. These calls come from enrichment with a bait or labelling near it, and not all partners need be listed.
